Assay results: patent publication US20140322771A1, “Lipid Production” (THE UNIVERSITY OF QUEENSLAND, priority 2010, published 2014)

Assay: In vitro fusion assay of artificial lipid droplets (light scattering)

## phosphatidic acid (1,2-Diacyl-sn-glycerol 3-phosphate) [PA]
PC covered LDs, PC:PA 20:1
  fraction of PA that achieves coalescence of artificial LDs: ~5%
In the presence of PE, PC:PE:PA 3:1:0.13
  fraction of PA that achieves coalescence of artificial LDs: ~3 % molar ratio
Increased concentration of PA in artificial LDs, light scattering
  number of artificial LDs during incubation: decreased significantly
